# Not every detail of the peptide structures is certain; ends, links or a residue may be inferred. Some of these results come from one statement about several compounds together. Some ranges recur; such a range may be that of the whole group of compounds. Peptide text beside a SMILES is read from it. * marks the point of attachment. For = O=C*
# The chains behind the UniProt entries cited, without tags or fusion partners. Residues count along the entry.
# UniProt P23229, 942-1130 limits assumed: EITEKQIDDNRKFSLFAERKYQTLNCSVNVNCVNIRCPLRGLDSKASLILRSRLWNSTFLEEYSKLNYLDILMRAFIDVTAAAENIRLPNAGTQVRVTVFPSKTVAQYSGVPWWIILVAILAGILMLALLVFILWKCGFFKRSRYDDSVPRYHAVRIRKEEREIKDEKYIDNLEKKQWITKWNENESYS
# UniProt P23229, 24-938 limits assumed: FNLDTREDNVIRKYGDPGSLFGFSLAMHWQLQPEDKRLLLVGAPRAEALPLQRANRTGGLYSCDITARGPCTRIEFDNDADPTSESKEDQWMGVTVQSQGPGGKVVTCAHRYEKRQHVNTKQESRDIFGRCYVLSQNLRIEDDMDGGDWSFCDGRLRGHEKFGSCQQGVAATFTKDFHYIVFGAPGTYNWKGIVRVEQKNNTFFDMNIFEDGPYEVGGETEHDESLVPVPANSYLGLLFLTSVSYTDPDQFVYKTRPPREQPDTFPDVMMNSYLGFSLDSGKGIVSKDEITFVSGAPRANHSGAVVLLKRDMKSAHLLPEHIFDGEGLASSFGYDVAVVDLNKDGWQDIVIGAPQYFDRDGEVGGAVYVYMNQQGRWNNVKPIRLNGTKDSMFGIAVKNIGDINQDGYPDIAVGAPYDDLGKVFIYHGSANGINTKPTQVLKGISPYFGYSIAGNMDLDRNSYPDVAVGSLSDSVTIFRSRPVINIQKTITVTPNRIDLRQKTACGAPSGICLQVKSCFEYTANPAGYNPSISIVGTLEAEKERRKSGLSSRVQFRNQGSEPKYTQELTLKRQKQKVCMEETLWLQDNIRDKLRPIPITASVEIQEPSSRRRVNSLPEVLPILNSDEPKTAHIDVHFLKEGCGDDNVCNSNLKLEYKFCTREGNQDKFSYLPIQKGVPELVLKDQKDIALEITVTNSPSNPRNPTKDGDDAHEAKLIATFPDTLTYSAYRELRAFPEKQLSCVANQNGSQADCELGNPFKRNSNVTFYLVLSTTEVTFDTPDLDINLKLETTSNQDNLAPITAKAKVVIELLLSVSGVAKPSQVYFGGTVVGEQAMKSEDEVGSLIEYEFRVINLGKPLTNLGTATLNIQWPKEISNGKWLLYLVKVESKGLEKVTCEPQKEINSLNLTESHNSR
# Assays:
# [1] = system: N-formyl peptide receptors (FPR) on rabbit neutrophils; conditions: rabbit neutrophils in vitro; cited from earlier work
# [2] = system: N-formyl peptide receptors (FPR) on rabbit neutrophils; conditions: rabbit neutrophils in vitro; cited from earlier work; remark: listed apart in the source
# [3] = system: human peripheral blood mononuclear cells; experiment: Binding of FITC-labeled HK-X to ConA-activated human peripheral blood lymphocytes (flow cytometry, DAPI DNA content); conditions: for activated cells demonstrating HK-X binding: ConA-stimulated lymphocytes, 100 nM FITC-labeled HK-X, FIG. 1B
# [4] = system: normal human peripheral blood mononuclear cells; experiment: Effects of HK-X on cultures of human peripheral blood mononuclear cells with and without Con A (cell cycle, viability, apoptosis); assay type: cell-based
# Procedure: The effects of addition of HK-X (as compared to a control of vehicle without peptide) to cultures of normal human peripheral blood mononuclear cells with and without the plant lectin, Con A, were also evaluated. […] However, HK-X induced apoptosis in a significant population of cells (˜30%) stimulated with Con A as determined by the presence of a sub G0/G1 population in the DNA profile. In cultures where the cells were not stimulated to enter the cell cycle (without Con A), the levels of sub G0/G1 were similar in HK-X treated and control cultures (<7%).
# [5] = system: Human peripheral blood basophils, neutrophils, and eosinophils; experiment: Binding of FITC labeled HK-X to human peripheral blood nucleated cells; conditions: compared to freshly isolated monocytes and lymphocytes, FIG. 2
# [6] = system: formyl peptide receptor (FPR); experiment: Affinity purification of 35S-methionine labeled cell proteins on HK-X substituted Sepharose, SDS-PAGE; assay type: binding, human; conditions: pH 2.5 elution; bands of 40, 68 and 94 Kd
# [7] = system: 165 Kd species, integrin of the alpha family; experiment: Affinity purification on HK-X substituted Sepharose, MALDI analysis of the 165 Kd species; assay type: binding, human; conditions: 165 Kd species eluted at pH 2.5; no beta subunit retained
# [8] = biological target: T1, integrin subunits α6 and β1 (Homo sapiens, UniProt P23229); experiment: Western Blot of platelet and leukocyte proteins purified on HK-X substituted Sepharose; assay type: binding; conditions: platelets and leukocytes, competitive and acid elution, FIG. 6
# T1 construct: Both the platelets and the peripheral blood leukocytes were washed and then lysed with 0.1% NP-40; endogenous in cells; host or cells: human platelets and peripheral blood leukocytes (NP-40 lysates)
# allergen-challenged lung = experiment: Mouse model of acute asthma; assay type: in vivo
# Raf = experiment: Distribution of kinases after costimulation, anti-phosphotyrosine immunoblot densitometry; assay type: cell-based, human; conditions: HK-X alone, 20 μg; HK-X value divided by the sum of the value for the vehicle plus the fresh normal cells
# Ras = experiment: as above; assay type: cell-based, human; conditions: HK-X alone, 20 μg; HK-X value divided by the sum of the value for the vehicle plus the fresh normal cells
# Pp60 Src = experiment: as above; assay type: cell-based, human; conditions: HK-X alone, 20 μg; HK-X value divided by the sum of the value for the vehicle plus the fresh normal cells
# ERK-1 = experiment: as above; assay type: cell-based, human; conditions: HK-X alone, 20 μg; HK-X value divided by the sum of the value for the vehicle plus the fresh normal cells
# G-P α = experiment: as above; assay type: cell-based, human; conditions: HK-X alone, 20 μg; HK-X value divided by the sum of the value for the vehicle plus the fresh normal cells
# G-P β = experiment: as above; assay type: cell-based, human; conditions: HK-X alone, 20 μg; HK-X value divided by the sum of the value for the vehicle plus the fresh normal cells
# G-P γ = experiment: as above; assay type: cell-based, human; conditions: HK-X alone, 20 μg; HK-X value divided by the sum of the value for the vehicle plus the fresh normal cells
# PLC γ = experiment: as above; assay type: cell-based, human; conditions: HK-X alone, 20 μg; HK-X value divided by the sum of the value for the vehicle plus the fresh normal cells
# [9] = intranasally for up to 3 months
compound,measurement,setting,value
N-formyl-L-norleucyl-Leu-Phe-Tyr [fNle-Leu-Phe-Tyr],maximal migration,[1],20-35 μm
same,degranulation ED50,[2],10^−10 to 10^−11
fMet-Leu-Phe benzylamide [fMet-Leu-Phe-NHBzl],maximal migration,[1],20-35 μm
same,degranulation ED50,[2],10^−10 to 10^−11
"CSCC[C@H](NC=O)C(=O)N[C@@H](CC(C)C)C(=O)N[C@@H](Cc1ccccc1)C(=O)N[C@@H](Cc1ccccc1)C(=O)O [HK-X, f-Met-Leu-Phe-Phe] (For-MLFF-OH)",activated cells demonstrating HK-X binding,[3]; cells in G0/G1 phase,50%
same,activated cells demonstrating HK-X binding,[3]; cells in S+G2+M phases,100%
same,receptors for HK-X on lymphocytes,"[3]; lymphocytes cultured with control materials, vehicle or culture media alone",did not develop receptors
same,"apoptosis, sub G0/G1 population in the DNA profile",[4]; cells stimulated with Con A,~30%
same,fraction of cells entering the cell cycle,"[4]; cultures with and without Con A, versus vehicle",did not alter
same,levels of sub G0/G1,"[4]; without Con A, similar in HK-X treated and control cultures",< 7%
same,HK-X receptors on cell surface,[5],large numbers of HK-X receptors
same,proteins with HK-X binding activity recovered from affinity column,[6],consistent with the fact that these subunits belong to the formyl peptide receptor (FPR) family
same,HK-X binding by integrin subunit,[7],"performed by the alpha subunit, not the beta subunit"
same,integrin subunits in proteins purified using HK-X substituted sepharose,[8],antibodies specific for the integrin subunits α6 and β1 recognize proteins purified using HK-X substituted sepharose
same,emigration of inflammatory cells into the allergen-challenged lung,allergen-challenged lung; acute asthma model,interrupted
same,Eosinophil numbers in the lung,allergen-challenged lung; during treatment with HK-X,dramatically reduced
same,mucus cell differentiation and subsequent mucus production in the lung,allergen-challenged lung; intranasally for three days during concomitant allergen challenge,Down-regulation or inhibition
same,mast cell degranulation,"allergen-challenged lung; pathological situations, both in vivo and in vitro",significant inhibitory effect
same,Raf: HK-X Control,Raf,0.65
same,Ras: HK-X Control,Ras,0.34
same,Pp60 Src: HK-X Control,Pp60 Src,0.33
same,ERK-1: HK-X Control,ERK-1,0.46
same,G-P α: HK-X Control,G-P α,0.33
same,G-P β: HK-X Control,G-P β,0.44
same,G-P γ: HK-X Control,G-P γ,0.52
same,PLC γ: HK-X Control,PLC γ,0.42
same,mast cell degranulation,inflamed lung; intranasal administration during allergen challenge,significantly reduced
same,collagen deposition in the interstitial spaces,inflamed lung; [9],reducing collagen deposition
same,eosinophils in the inflamed lung,inflamed lung; [9],effective in removing eosinophils
same,effects of parenteral administration,inflamed lung; parenteral administration,produced the same beneficial effects
same,maximal migration,[1],20-35 μm
same,degranulation ED50,[2],10^−10 to 10^−11

# Source: patent publication US20030050249A1, “Complexes of alpha-6 integrin subunits with small peptides and methods for treating indications resulting from modulation of integrin-mediated responses by altering signal transduction” (priority 2000, published 2003)
